These results are taken from the supplement of paper PMC12067093, “Discovery and optimisation of a covalent ligand for TRIM25 and its application to targeted protein ubiquitination” (Chemical Science, 2025).

Sequences of proteins named here, by UniProt entry; tags and fusion partners are left off. A change or cut given only in a name is not applied to a line headed by its entry.
UniProt P23588, whole entry, looked up: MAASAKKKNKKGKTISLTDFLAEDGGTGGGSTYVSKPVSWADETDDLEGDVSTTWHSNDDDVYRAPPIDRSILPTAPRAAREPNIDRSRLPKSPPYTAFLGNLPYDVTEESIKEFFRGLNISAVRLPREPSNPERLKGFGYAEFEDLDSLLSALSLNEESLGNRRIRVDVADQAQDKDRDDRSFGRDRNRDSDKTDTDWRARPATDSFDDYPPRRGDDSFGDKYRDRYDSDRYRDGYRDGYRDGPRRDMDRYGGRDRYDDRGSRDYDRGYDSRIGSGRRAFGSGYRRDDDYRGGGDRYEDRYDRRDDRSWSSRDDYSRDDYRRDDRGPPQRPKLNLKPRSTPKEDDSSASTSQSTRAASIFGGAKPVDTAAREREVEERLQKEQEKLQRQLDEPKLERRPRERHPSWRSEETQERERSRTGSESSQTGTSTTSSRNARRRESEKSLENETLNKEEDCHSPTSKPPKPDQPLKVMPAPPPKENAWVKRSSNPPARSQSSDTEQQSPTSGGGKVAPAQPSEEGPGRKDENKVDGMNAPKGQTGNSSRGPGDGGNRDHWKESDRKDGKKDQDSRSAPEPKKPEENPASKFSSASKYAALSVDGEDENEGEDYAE
UniProt O43402: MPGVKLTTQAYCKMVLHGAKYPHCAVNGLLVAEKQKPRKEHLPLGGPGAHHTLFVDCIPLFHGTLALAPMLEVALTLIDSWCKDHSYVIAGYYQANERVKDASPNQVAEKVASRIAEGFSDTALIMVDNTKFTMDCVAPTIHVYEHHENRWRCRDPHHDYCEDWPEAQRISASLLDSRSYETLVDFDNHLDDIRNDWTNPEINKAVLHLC
UniProt P07099: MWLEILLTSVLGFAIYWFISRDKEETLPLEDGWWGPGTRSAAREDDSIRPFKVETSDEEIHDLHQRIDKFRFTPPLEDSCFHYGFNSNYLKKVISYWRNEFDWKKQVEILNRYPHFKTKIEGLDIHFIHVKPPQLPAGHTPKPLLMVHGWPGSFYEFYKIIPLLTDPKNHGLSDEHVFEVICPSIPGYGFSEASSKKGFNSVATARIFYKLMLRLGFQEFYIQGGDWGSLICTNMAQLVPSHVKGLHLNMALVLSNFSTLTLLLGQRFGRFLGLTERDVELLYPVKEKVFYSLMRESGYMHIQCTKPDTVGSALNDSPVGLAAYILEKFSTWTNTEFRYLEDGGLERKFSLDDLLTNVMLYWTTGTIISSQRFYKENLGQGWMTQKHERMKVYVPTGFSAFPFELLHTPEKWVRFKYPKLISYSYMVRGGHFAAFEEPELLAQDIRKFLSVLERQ
UniProt O75616: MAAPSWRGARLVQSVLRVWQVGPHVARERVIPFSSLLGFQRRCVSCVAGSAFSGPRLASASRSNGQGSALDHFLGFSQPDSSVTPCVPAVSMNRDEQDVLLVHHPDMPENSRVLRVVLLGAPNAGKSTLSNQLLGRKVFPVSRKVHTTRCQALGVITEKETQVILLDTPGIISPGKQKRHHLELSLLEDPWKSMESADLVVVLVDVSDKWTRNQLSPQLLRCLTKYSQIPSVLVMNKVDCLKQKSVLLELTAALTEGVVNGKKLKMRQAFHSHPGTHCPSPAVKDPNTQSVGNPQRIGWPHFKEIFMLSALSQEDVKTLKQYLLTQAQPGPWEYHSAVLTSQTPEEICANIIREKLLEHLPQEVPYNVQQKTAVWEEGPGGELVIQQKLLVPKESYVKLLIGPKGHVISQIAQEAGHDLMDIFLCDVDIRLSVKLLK
UniProt Q15369, whole entry, looked up: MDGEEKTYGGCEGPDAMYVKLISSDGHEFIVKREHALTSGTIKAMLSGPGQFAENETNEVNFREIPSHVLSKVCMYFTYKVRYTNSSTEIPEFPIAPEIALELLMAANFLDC
UniProt P55010, whole entry, looked up: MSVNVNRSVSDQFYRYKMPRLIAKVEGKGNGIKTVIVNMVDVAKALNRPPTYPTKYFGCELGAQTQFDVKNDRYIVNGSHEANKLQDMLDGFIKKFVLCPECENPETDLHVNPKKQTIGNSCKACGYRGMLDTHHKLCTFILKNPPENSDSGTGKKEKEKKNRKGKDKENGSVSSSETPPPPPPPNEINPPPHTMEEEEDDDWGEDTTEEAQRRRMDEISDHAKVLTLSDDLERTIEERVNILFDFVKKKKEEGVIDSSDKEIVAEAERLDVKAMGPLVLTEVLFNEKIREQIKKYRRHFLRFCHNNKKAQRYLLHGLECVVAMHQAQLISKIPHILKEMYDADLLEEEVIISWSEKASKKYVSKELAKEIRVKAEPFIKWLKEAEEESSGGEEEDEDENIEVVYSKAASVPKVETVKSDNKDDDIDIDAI
UniProt Q32P44: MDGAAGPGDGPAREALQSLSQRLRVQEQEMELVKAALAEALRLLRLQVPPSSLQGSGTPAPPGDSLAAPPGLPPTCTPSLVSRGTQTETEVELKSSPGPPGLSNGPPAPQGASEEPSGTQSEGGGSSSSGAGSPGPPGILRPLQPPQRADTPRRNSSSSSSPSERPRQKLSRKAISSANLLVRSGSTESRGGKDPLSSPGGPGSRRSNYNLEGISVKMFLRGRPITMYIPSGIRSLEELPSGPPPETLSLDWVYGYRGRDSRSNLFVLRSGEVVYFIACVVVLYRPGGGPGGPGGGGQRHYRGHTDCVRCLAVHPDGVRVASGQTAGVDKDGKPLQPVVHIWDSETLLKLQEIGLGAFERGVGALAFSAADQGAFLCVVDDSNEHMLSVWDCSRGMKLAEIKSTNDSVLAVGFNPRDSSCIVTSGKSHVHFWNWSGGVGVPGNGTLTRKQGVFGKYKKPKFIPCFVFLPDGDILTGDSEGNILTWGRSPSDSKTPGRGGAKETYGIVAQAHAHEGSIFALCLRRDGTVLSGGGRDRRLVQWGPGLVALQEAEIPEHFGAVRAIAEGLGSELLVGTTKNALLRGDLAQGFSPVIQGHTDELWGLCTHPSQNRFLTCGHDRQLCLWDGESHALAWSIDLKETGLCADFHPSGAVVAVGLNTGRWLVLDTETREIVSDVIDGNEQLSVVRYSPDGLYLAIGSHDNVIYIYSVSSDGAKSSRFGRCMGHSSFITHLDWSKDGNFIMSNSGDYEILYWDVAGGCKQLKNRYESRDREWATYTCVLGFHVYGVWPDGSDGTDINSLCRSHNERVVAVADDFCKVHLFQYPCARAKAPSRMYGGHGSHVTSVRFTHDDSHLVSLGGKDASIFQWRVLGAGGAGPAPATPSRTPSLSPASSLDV
UniProt Q6IA86: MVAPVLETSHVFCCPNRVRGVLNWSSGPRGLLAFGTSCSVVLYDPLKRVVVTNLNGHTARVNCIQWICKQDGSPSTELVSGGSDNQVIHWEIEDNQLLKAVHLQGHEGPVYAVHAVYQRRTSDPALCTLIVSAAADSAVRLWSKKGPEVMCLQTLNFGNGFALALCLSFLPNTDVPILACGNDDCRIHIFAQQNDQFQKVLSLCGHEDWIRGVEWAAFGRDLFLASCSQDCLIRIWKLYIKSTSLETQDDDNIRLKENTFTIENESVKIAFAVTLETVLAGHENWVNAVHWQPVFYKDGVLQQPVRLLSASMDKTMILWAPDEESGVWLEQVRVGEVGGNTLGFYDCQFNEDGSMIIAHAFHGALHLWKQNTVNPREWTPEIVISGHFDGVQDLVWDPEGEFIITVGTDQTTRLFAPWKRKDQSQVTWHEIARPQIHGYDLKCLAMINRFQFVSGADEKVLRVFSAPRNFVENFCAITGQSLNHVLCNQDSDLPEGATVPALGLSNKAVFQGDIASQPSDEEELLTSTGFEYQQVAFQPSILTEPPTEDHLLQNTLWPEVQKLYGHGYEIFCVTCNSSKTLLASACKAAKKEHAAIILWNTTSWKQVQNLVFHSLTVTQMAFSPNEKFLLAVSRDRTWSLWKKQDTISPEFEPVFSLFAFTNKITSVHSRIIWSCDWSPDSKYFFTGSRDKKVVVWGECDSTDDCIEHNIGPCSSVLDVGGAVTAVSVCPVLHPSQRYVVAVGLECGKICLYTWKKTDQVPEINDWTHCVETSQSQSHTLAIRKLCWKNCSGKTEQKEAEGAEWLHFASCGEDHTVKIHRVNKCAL
UniProt Q9HCE0: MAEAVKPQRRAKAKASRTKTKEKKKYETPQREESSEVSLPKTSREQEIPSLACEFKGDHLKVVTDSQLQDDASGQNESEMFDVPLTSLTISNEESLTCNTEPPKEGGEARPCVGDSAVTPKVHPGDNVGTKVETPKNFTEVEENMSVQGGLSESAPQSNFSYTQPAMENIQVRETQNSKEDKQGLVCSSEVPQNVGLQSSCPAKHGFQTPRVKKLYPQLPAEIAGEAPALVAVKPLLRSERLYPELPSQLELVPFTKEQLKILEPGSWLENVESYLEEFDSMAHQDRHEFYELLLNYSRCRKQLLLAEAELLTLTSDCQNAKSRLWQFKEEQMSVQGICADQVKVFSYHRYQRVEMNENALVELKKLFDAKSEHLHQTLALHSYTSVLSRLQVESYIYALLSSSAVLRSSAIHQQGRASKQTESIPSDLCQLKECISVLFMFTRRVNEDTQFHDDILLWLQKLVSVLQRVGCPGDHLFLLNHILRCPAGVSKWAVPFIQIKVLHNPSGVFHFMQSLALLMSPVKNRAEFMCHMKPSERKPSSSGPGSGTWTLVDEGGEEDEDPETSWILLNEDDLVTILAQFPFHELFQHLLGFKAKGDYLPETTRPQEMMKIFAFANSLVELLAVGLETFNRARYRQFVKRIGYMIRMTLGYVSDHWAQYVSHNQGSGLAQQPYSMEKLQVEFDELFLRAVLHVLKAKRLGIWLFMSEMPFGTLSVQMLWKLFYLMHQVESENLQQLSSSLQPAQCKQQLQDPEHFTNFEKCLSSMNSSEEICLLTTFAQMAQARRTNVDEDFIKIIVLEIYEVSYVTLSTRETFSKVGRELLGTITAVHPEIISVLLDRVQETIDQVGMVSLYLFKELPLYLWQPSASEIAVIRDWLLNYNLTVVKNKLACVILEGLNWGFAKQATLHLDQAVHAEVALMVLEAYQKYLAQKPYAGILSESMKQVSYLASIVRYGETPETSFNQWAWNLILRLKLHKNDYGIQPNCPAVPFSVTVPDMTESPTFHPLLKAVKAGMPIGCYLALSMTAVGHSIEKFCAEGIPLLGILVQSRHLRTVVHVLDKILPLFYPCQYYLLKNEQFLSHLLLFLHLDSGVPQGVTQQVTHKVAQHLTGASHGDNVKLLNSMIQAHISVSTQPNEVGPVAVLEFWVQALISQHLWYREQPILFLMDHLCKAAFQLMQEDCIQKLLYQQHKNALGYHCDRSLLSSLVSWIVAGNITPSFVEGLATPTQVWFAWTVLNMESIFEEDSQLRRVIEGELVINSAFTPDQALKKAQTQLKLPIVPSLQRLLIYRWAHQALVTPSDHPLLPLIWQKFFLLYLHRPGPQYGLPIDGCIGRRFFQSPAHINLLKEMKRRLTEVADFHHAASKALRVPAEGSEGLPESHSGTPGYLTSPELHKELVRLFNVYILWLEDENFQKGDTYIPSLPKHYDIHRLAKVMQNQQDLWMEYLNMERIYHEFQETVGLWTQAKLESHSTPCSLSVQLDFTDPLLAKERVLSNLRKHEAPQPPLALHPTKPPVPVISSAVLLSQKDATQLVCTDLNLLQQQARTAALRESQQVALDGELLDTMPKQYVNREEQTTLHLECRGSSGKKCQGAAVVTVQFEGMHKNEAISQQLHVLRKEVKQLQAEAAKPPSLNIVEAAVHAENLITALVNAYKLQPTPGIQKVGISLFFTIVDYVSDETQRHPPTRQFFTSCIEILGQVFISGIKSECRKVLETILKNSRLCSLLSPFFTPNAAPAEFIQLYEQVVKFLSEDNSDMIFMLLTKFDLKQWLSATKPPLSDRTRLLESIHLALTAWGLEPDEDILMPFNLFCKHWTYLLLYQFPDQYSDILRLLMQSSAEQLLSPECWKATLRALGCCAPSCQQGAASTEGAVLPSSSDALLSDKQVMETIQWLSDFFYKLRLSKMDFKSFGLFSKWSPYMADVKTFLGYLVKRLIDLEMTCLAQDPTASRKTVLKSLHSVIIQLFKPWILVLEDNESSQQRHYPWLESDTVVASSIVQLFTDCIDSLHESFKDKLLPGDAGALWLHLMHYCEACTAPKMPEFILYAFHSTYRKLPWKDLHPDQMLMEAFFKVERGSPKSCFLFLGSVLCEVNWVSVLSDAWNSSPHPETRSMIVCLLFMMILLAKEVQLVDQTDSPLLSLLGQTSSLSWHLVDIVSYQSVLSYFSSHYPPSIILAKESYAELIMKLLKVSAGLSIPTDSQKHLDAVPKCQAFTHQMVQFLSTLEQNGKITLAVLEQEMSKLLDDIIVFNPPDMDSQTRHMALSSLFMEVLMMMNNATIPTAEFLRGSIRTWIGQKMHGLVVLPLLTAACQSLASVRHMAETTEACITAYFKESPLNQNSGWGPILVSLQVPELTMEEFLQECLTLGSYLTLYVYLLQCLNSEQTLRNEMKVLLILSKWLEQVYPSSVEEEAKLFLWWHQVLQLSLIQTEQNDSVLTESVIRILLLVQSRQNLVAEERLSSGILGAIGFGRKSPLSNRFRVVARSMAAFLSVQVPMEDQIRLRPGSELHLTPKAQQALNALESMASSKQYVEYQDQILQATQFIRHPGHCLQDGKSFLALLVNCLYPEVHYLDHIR

Some of the results follow.
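Further: competitive profiling in live THP-1 cells: cysteine peptides tagged with an iodoacetamide desthiobiotin (IA-DTB) probe, intensity after compound treatment relative to DMSO-treated cells.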

Compound in this experiment: Cc1cc(ccc1-c1ccccc1)C(=O)N1CCCN(CC1)C(=O)CCl [compound 10]
The experiment can be described thus: probe-labelled cysteine peptide fold change vs DMSO (competition) (log2 fold change); higher = less target engagement (more negative = stronger competition). As to conditions: 50 µM; THP-1; incubation time: 4 h.
Turning to “EIF3G_O75821_25_CVTSELLK (UniProt O75821)”, the “probe-labelled cysteine peptide fold change” value was -0.0476.
With “ELP4_Q96EB1_412_LGPGCGMMAGGK (UniProt Q96EB1)”, the “probe-labelled cysteine peptide fold change” value is -1.07.
To “EIF4B_P23588_457_SLENETLNKEEDCHSPTSKPPKPDQPLK (UniProt P23588)” belongs -0.575.
As for “EMC8_O43402_161_CRDPHHDYCEDWPEAQR (UniProt O43402)”, the “probe-labelled cysteine peptide fold change” value came to 0.211.
To “EPHX1_P07099_182_NHGLSDEHVFEVICPSIPGYGFSEASSK (UniProt P07099)” belongs 0.112; to “EIF3H_O15372_177_LMEVCK (UniProt O15372)”, 0.0694.
With “ERAL1_O75616_425_GHVISQIAQEAGHDLMDIFLCDVDIR (UniProt O75616)”, the “probe-labelled cysteine peptide fold change” value was 0.058.
For “EIF3M_Q7L2H7_175_LLYEALVDCKK (UniProt Q7L2H7)”, the “probe-labelled cysteine peptide fold change” value was found to be 0.338.
Then “ELOC_Q15369_74_VCMYFTYK (UniProt Q15369)”, with 0.0537; and “ELMOD2_Q8IZ81_285_GLLLDCNVALTLK (UniProt Q8IZ81)”, with 0.52.
With “EIF5_P55010_138_LCTFILK (UniProt P55010)”, the “probe-labelled cysteine peptide fold change” value is -0.423.
As for “ERBIN_Q96RT1_464_AQVAFECDEDK (UniProt Q96RT1)”, the “probe-labelled cysteine peptide fold change” value was determined as 0.521.
Take “EP300_Q09472_1272_MHQICVLHHEIIWPAGFVCDGCLK (UniProt Q09472)”: the “probe-labelled cysteine peptide fold change” value was 0.126.
As to “ELOC_Q15369_11_TYGGCEGPDAMYVK (UniProt Q15369)”, the “probe-labelled cysteine peptide fold change” value is -0.111.
To “EML3_Q32P44_615_FLTCGHDR (UniProt Q32P44)” belongs -0.246.
With “EPHX2_P34913_309_GYGESSAPPEIEEYCMEVLCK (UniProt P34913)”, the “probe-labelled cysteine peptide fold change” value came to 0.147.
For the target “ELP2_Q6IA86_38_GLLAFGTSCSVVLYDPLK (UniProt Q6IA86)”, the “probe-labelled cysteine peptide fold change” value stood at 0.156.
Take “EIF5_P55010_99+102_FVLCPECENPETDLHVNPK (UniProt P55010)”: the “probe-labelled cysteine peptide fold change” value is -0.336.
On to “EPRS_P07814_1148_LNQWCNVVR (UniProt P07814)”, for which the “probe-labelled cysteine peptide fold change” value turned out to be 0.0139.
“EIF4B_P23588_457_EEDCHSPTSKPPKPDQPLK (UniProt P23588)”: the “probe-labelled cysteine peptide fold change” value was -0.166.
To “EIF4G1_Q04637_662_LQGINCGPDFTPSFANLGR (UniProt Q04637)” belongs -0.045; to “EPRS_P07814_123_TYLVGNSLSLADLCVWATLK (UniProt P07814)”, -0.0514.
“EPRS_P07814_697_EAPCVLIYIPDGHTK (UniProt P07814)”: the “probe-labelled cysteine peptide fold change” value stood at 0.0105.
With “EPG5_Q9HCE0_1586_QYVNREEQTTLHLECR (UniProt Q9HCE0)”, the “probe-labelled cysteine peptide fold change” value is -0.0417.
“ELP2_Q6IA86_572_LYGHGYEIFCVTCNSSK (UniProt Q6IA86)”: the “probe-labelled cysteine peptide fold change” value is 0.106.
With “ELP5_Q8TE02_52+61_SALCGEQVHILGCEVSEEEFREGFDSDINNR (UniProt Q8TE02)”, the “probe-labelled cysteine peptide fold change” value was -0.112.
To “EML2_O95834_604+605_VHLFSYPCCQPR (UniProt O95834)” belongs -0.331; to “ELMO1_Q92556_726_EPSNYDFVYDCN (UniProt Q92556)”, -0.146.
Regarding “ELAC1_Q9H777_130_TMELSHTELVFHYVVHELVPTADQCPAEELK (UniProt Q9H777)”, the “probe-labelled cysteine peptide fold change” value stood at 0.115.
Take “ELP5_Q8TE02_151_LPCTTLCQVLHAVSHQDSCPGDSSSVGK (UniProt Q8TE02)”: the “probe-labelled cysteine peptide fold change” value worked out at 0.148.
Then “EML3_Q32P44_420_DSSCIVTSGK (UniProt Q32P44)”, with -0.2; and “EIF4A1_P60842_131_VVMALGDYMGASCHACIGGTNVR (UniProt P60842)”, with 0.0916; and “EPRS_P07814_623_VTWLAETTHALPIPVICVTYEHLITKPVLGK (UniProt P07814)”, with 0.14.
As to “ELP1_O95163_744_EAFECMR (UniProt O95163)”, the “probe-labelled cysteine peptide fold change” value worked out at 0.271.
For “EIF4A3_P38919_137_GLLALGDYMNVQCHACIGGTNVGEDIRK (UniProt P38919)”, the “probe-labelled cysteine peptide fold change” value was 0.0649.
As to “EME1_Q96AY2_437_ELADFTCAFTK (UniProt Q96AY2)”, the “probe-labelled cysteine peptide fold change” value was -0.0629.
For the target “EIF3D_O15371_327_NLAMEATYINHNFSQQCLR (UniProt O15371)”, the “probe-labelled cysteine peptide fold change” value is -0.147.
For the target “ELP2_Q6IA86_13_VAPVLETSHVFCCPNR (UniProt Q6IA86)”, the “probe-labelled cysteine peptide fold change” value was -0.24.
On to “ENOPH1_Q9UHY7_202_IADSIGCSTNNILFLTDVTR (UniProt Q9UHY7)”, for which the “probe-labelled cysteine peptide fold change” value is -0.0738.
